Results: patent publication US20110045003A1 (SYNOVEX, published 2011)
These are yes or no findings as the source states them, for the method shown. Some results given as binding are weak or reduced against the parent protein; the word gives no strength. For part of these data: Tags and fused reporters may be left off the sequences shown.

Legend:
[1] = target: T1, BSA coupled 37-mer Cad-8 peptide (sequence corresponding to the Cad-11 immunogen) (UniProt P55286); assay: ELISA, BSA-coupled 37-mer cadherin peptide coated at 500 ng/ml, antibody titrated, A450
T1 sequence (peptide, linked to BSA, looked up): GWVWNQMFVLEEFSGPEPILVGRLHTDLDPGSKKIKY

[2] = target: T2, BSA coupled 37-mer Cad-18 peptide (sequence corresponding to the Cad-11 immunogen) (UniProt Q13634); assay: as above
T2 sequence (peptide, linked to BSA, looked up): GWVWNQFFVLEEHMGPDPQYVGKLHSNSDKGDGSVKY

[3] = target: T3, BSA coupled 37-mer Cad-11 peptide encompassing the Cad-11 immunogen (UniProt P55287); assay: as above
T3 sequence (peptide, linked to BSA, looked up): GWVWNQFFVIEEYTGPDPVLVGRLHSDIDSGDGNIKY

[4] = target: T4, recombinant Cad-11 EC1 human IgG1 fusion protein (R&D Systems Cat. No. 1790-CA-050) (human) (UniProt P55287); assay: competition ELISA against biotinylated SYN0012
T4 sequence: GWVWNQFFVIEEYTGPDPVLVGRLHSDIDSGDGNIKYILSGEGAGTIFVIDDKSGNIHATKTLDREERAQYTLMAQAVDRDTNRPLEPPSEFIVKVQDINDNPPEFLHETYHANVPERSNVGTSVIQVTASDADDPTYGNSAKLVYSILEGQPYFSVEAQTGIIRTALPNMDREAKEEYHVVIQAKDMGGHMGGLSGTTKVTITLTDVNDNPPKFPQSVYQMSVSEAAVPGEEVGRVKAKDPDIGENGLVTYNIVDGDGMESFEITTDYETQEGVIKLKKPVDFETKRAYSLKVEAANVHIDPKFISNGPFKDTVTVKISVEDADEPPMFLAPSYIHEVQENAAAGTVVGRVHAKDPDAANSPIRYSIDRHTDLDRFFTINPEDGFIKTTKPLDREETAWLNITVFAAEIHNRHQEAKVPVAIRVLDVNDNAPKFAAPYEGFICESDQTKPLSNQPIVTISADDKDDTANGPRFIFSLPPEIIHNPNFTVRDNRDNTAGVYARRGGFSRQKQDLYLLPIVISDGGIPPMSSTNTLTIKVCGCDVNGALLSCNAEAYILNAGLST

[5] = target: T4, recombinant Cad-11 EC1 human IgG1 fusion protein (R&D Systems Cat. No. 1790-CA-050) (human); assay: competition ELISA: antibody dilution series premixed with biotinylated SYN0012/H1M1 (0.1 µg/ml) on plate-coated recombinant human Cad-11 EC1 fusion protein; OD450 = bound biotinylated SYN0012
[6] = target: T4, recombinant Cad-11 EC1 human IgG1 fusion protein (R&D Systems Cat. No. 1790-CA-050) (human); assay: competition ELISA on coated recombinant human Cad-11 EC1 fusion protein; competitor biotinylated SYN0012 at 0.1 µg/ml, streptavidin-HRP, OD450

Measured: binding

B1: humanized anti-Cad-11 antibody SDP081 (Vκ2/VH3) (antibody, IgG4, V domains shown)
VH: EVQLVQSGAEVKKPGASVKISCKASGYSFTGYFMNWVRQAPGQGLEWIGRINPYTGDTFYNQKFKGRATLTVDKSTSTAYMELSSLRSEDTAVYYCGRLGSRYWYFDVWGQGTTVTVSS
VL: DVLMTQTPLSSPVTLGQPASISCRSSQSIIHSNGNTYLEWYLQKPGQSPQLLIYKVSNRFSGVPDRFSGSGSGTDFTLKISRVEAEDVGVYYCFQGSHVPWTFGQGTKLEIK
notes: humanized IgG4 (S241P), kappa
not listed: [6]
binds: all other assays above

B2: humanized anti-Cad-11 antibody SDP011 (Vκ1/VH1) (antibody, IgG4, V domains shown)
VH: EVQLVQSGPELKKPGASVKISCKASGYSFTGYFMNWVKQAHGQGLEWIGRINPYTGDTFYNQKFKGRATLTVDKSSSTAYMELVSLSSEDSAVYYCGRLGSRYWYFDVWGQGTTVTVSS
VL: DVLMTQTPLSSPVTLGQPASISCRSSQSIIHSNGNTYLEWYLQKPGQSPQLLIYKVSNRFSGVPDRFTGSGSGTDFTLKISRVEAEDVGVYYCFQGSHVPWTFGQGTKLEIK
notes: humanized IgG4 (S241P), kappa
not listed: [5]
binds: all other assays above

B3: humanized anti-Cad-11 antibody SDP021 (Vκ1/VH2) (antibody, IgG4, V domains shown)
VH: EVQLVQSGAEVKKPGASVKISCKASGYSFTGYFMNWVKQAPGQGLEWIGRINPYTGDTFYNQKFKGRATLTVDKSTSTAYMELSSLRSEDTAVYYCGRLGSRYWYFDVWGQGTTVTVSS
VL: DVLMTQTPLSSPVTLGQPASISCRSSQSIIHSNGNTYLEWYLQKPGQSPQLLIYKVSNRFSGVPDRFTGSGSGTDFTLKISRVEAEDVGVYYCFQGSHVPWTFGQGTKLEIK
notes: humanized IgG4 (S241P), kappa
not listed: [5]
binds: all other assays above

B4: humanized anti-Cad-11 antibody SDP031 (Vκ1/VH3) (antibody, IgG4, V domains shown)
VH: EVQLVQSGAEVKKPGASVKISCKASGYSFTGYFMNWVRQAPGQGLEWIGRINPYTGDTFYNQKFKGRATLTVDKSTSTAYMELSSLRSEDTAVYYCGRLGSRYWYFDVWGQGTTVTVSS
VL: DVLMTQTPLSSPVTLGQPASISCRSSQSIIHSNGNTYLEWYLQKPGQSPQLLIYKVSNRFSGVPDRFTGSGSGTDFTLKISRVEAEDVGVYYCFQGSHVPWTFGQGTKLEIK
notes: humanized IgG4 (S241P), kappa
not listed: [5]
binds: all other assays above

B5: humanized anti-Cad-11 antibody SDP041 (Vκ1/VH4) (antibody, IgG4, V domains shown)
VH: EVQLVQSGAEVKKPGASVKVSCKASGYSFTGYFMNWVRQAPGQGLEWIGRINPYTGDTFYNQKFKGRATITVDKSTSTAYMELSSLRSEDTAVYYCGRLGSRYWYFDVWGQGTTVTVSS
VL: DVLMTQTPLSSPVTLGQPASISCRSSQSIIHSNGNTYLEWYLQKPGQSPQLLIYKVSNRFSGVPDRFTGSGSGTDFTLKISRVEAEDVGVYYCFQGSHVPWTFGQGTKLEIK
notes: humanized IgG4 (S241P), kappa
not listed: [5]
binds: all other assays above

B6: humanized anti-Cad-11 antibody SDP061 (Vκ2/VH1) (antibody, IgG4, V domains shown)
VH: EVQLVQSGPELKKPGASVKISCKASGYSFTGYFMNWVKQAHGQGLEWIGRINPYTGDTFYNQKFKGRATLTVDKSSSTAYMELVSLSSEDSAVYYCGRLGSRYWYFDVWGQGTTVTVSS
VL: DVLMTQTPLSSPVTLGQPASISCRSSQSIIHSNGNTYLEWYLQKPGQSPQLLIYKVSNRFSGVPDRFSGSGSGTDFTLKISRVEAEDVGVYYCFQGSHVPWTFGQGTKLEIK
notes: humanized IgG4 (S241P), kappa
binds: [1] | [3] | [4] | [5]

B7: humanized anti-Cad-11 antibody SDP071 (Vκ2/VH2) (antibody, IgG4, V domains shown)
VH: EVQLVQSGAEVKKPGASVKISCKASGYSFTGYFMNWVKQAPGQGLEWIGRINPYTGDTFYNQKFKGRATLTVDKSTSTAYMELSSLRSEDTAVYYCGRLGSRYWYFDVWGQGTTVTVSS
VL: DVLMTQTPLSSPVTLGQPASISCRSSQSIIHSNGNTYLEWYLQKPGQSPQLLIYKVSNRFSGVPDRFSGSGSGTDFTLKISRVEAEDVGVYYCFQGSHVPWTFGQGTKLEIK
notes: humanized IgG4 (S241P), kappa
not listed: [6]
binds: all other assays above

B8: humanized anti-Cad-11 antibody SDP091 (Vκ2/VH4) (antibody, IgG4, V domains shown)
VH: EVQLVQSGAEVKKPGASVKVSCKASGYSFTGYFMNWVRQAPGQGLEWIGRINPYTGDTFYNQKFKGRATITVDKSTSTAYMELSSLRSEDTAVYYCGRLGSRYWYFDVWGQGTTVTVSS
VL: DVLMTQTPLSSPVTLGQPASISCRSSQSIIHSNGNTYLEWYLQKPGQSPQLLIYKVSNRFSGVPDRFSGSGSGTDFTLKISRVEAEDVGVYYCFQGSHVPWTFGQGTKLEIK
notes: humanized IgG4 (S241P), kappa
not listed: [6]
binds: all other assays above

B9: humanized anti-Cad-11 antibody SDP101 (Vκ2/VH5) (antibody, IgG4, V domains shown)
VH: EVQLVQSGAEVKKPGASVKVSCKASGYSFTGYFMNWVRQAPGQGLEWIGRINPYTGDTFYNQKFKGRVTITVDKSTSTAYMELSSLRSEDTAVYYCGRLGSRYWYFDVWGQGTTVTVSS
VL: DVLMTQTPLSSPVTLGQPASISCRSSQSIIHSNGNTYLEWYLQKPGQSPQLLIYKVSNRFSGVPDRFSGSGSGTDFTLKISRVEAEDVGVYYCFQGSHVPWTFGQGTKLEIK
notes: humanized IgG4 (S241P), kappa
not listed: [6]
binds: all other assays above

B10: humanized anti-Cad-11 antibody SDP111 (Vκ3/VH1) (antibody, IgG4, V domains shown)
VH: EVQLVQSGPELKKPGASVKISCKASGYSFTGYFMNWVKQAHGQGLEWIGRINPYTGDTFYNQKFKGRATLTVDKSSSTAYMELVSLSSEDSAVYYCGRLGSRYWYFDVWGQGTTVTVSS
VL: DVVMTQTPLSSPVTLGQPASISCRSSQSIIHSNGNTYLEWYLQKPGQSPQLLIYKVSNRFSGVPDRFSGSGSGTDFTLKISRVEAEDVGVYYCFQGSHVPWTFGQGTKLEIK
notes: humanized IgG4 (S241P), kappa
not listed: [6]
binds: all other assays above

B11: humanized anti-Cad-11 antibody SDP121 (Vκ3/VH2) (antibody, IgG4, V domains shown)
VH: EVQLVQSGAEVKKPGASVKISCKASGYSFTGYFMNWVKQAPGQGLEWIGRINPYTGDTFYNQKFKGRATLTVDKSTSTAYMELSSLRSEDTAVYYCGRLGSRYWYFDVWGQGTTVTVSS
VL: DVVMTQTPLSSPVTLGQPASISCRSSQSIIHSNGNTYLEWYLQKPGQSPQLLIYKVSNRFSGVPDRFSGSGSGTDFTLKISRVEAEDVGVYYCFQGSHVPWTFGQGTKLEIK
notes: humanized IgG4 (S241P), kappa
not listed: [6]
binds: all other assays above

B12: humanized anti-Cad-11 antibody SDP131 (Vκ3/VH3) (antibody, IgG4, V domains shown)
VH: EVQLVQSGAEVKKPGASVKISCKASGYSFTGYFMNWVRQAPGQGLEWIGRINPYTGDTFYNQKFKGRATLTVDKSTSTAYMELSSLRSEDTAVYYCGRLGSRYWYFDVWGQGTTVTVSS
VL: DVVMTQTPLSSPVTLGQPASISCRSSQSIIHSNGNTYLEWYLQKPGQSPQLLIYKVSNRFSGVPDRFSGSGSGTDFTLKISRVEAEDVGVYYCFQGSHVPWTFGQGTKLEIK
notes: humanized IgG4 (S241P), kappa
not listed: [6]
binds: all other assays above

B13: humanized anti-Cad-11 antibody SDP141 (Vκ3/VH4) (antibody, IgG4, V domains shown)
VH: EVQLVQSGAEVKKPGASVKVSCKASGYSFTGYFMNWVRQAPGQGLEWIGRINPYTGDTFYNQKFKGRATITVDKSTSTAYMELSSLRSEDTAVYYCGRLGSRYWYFDVWGQGTTVTVSS
VL: DVVMTQTPLSSPVTLGQPASISCRSSQSIIHSNGNTYLEWYLQKPGQSPQLLIYKVSNRFSGVPDRFSGSGSGTDFTLKISRVEAEDVGVYYCFQGSHVPWTFGQGTKLEIK
notes: humanized IgG4 (S241P), kappa
not listed: [6]
binds: all other assays above

B14: humanized anti-Cad-11 antibody SDP151 (Vκ3/VH5) (antibody, IgG4, V domains shown)
VH: EVQLVQSGAEVKKPGASVKVSCKASGYSFTGYFMNWVRQAPGQGLEWIGRINPYTGDTFYNQKFKGRVTITVDKSTSTAYMELSSLRSEDTAVYYCGRLGSRYWYFDVWGQGTTVTVSS
VL: DVVMTQTPLSSPVTLGQPASISCRSSQSIIHSNGNTYLEWYLQKPGQSPQLLIYKVSNRFSGVPDRFSGSGSGTDFTLKISRVEAEDVGVYYCFQGSHVPWTFGQGTKLEIK
notes: humanized IgG4 (S241P), kappa
not listed: [6]
binds: all other assays above
